B1: WDR1 (protein, UniProt O88342 1-606)
chain: MPYEIKKVFASLPQVERGVSKILGGDPKGDHFLYTNGKCVILRNIDNPAIADIYTEHAHQVVVAKYAPSGFYIASGDISGKLRIWDTTQKEHLLKYEYQPFAGKIKDIAWTEDSKRIAVVGEGREKFGAVFLWDTGSSVGEITGHNKVINSVDIKQTRPYRLATGSDDNCAAFFEGPPFKFKFTIGDHSRFVNCVRFSPDGNRFATASADGQIFIYDGKTGEKVCALGESKAHDGGIYAISWSPDSTHLLSASGDKTSKIWDVNVNSVVSTFPMGSNVLDQQLGCLWQKDHLLSISLSGYINYLDKNNPSKPLRVIKGHSKSIQCLTVHRNGGKSYIYSGSHDGHINYWDSETGENDSFSGKGHTNQVSRMTVNESEQLVSCSMDDTVRYTNLTLRDYSGQGVVKLDVQPKCVAVGPGGYTVVVCIGQIVLLKDQKKCFSIDNPGYEPEVVAVHPGGDTVAVGGTDGNVRVYSILASTLKDEGKLLEAKGPVTDVAYSHDGAFLAVCDASKVVTVFSVADGYSENNVFYGHHAKIVCLAWSPDNEHFASGGMDMMVYVWTLSDPETKVKIQDAHRLHHVSSLAWLDEHTLVTTSHDASVKEWTITY
B2: elongator protein complex 1 (ELP1) (protein, UniProt Q7TT37 1-1333)
chain: MRNLKLHRTLEFRDIQAPGKPQCFCLRAEQGTVLIGSERGLTEVDPVRREVKTEISLVAEGFLPEDGSGCIVGIQDLLDQESVCVATASGDVIVCNLSTQQLECVGSVASGISVMSWSPDQELLLLATAQQTLIMMTKDFEVIAEEQIHQDDFGEGKFVTVGWGSKQTQFHGSEGRPTAFPVQLPENALPWDDRRPHITWRGDGQYFAVSVVCRQTEARKIRVWNREFALQSTSESVPGLGPALAWKPSGSLIASTQDKPNQQDVVFFEKNGLLHGHFTLPFLKDEVKVNDLLWNADSSVLAIWLEDLPKEDSSTLKSYVQLWTVGNYHWYLKQSLPFSTTGKNQIVSLLWDPVTPCRLHVLCTGWRYLCCDWHWTTDRSSGNSANDLANVAVIDGNRVLVTVFRQTVVPPPMCTYRLLIPHPVNQVIFSAHLGNDLAVLDASNQISVYKCGDKPNMDSTVKLGAVGGNGFKVPLTTPHLEKRYSIQFGNNEEEEEEEVNALQLSFLTWVEDDTFLAISYSHSSSQSIIHHLTVTHSEVDEEQGQLDVSSSVTVDGVVIGLCCCSKTKSLAVQLADGQVLKYLWESPSLAVEPWKNSEGIPVRFVHPCTQMEVATIGGEECVLGLTDRCRFFINDTEVASNITSFAVCDDFLLVTTHSHTCQVFSLSGASLKMLQAALSGSHEASGEILRKVERGSRIVTVVPQDTKLILQMPRGNLEVVHHRALVLAQIRKWLDKLMFKEAFECMRKLRINLNLIHDHNPKVFLENVETFVKQIDSVNHINLFFTELREEDVTKTMYPPPITKSVQVSTHPDGKKLDLICDAMRAAMEAINPRKFCLSILTSHVKKTTPELEIVLQKVQELQGNLPFDPESVSVEEALKYLLLLVDVNELFNHSLGTYDFNLVLMVAEKSQKDPKEYLPFLNTLKKMETNYQRFTIDKYLKRYEKALGHLSKCGPEYFTECLNLIKDKNLYKEALKLYRPDSPQYQAVSMAYGEHLMQEHLYEPAGLVFARCGAQEKALEAFLACGSWQQALCVAAQLQMSKDKVAGLARTLAGKLVEQRKHSEAATVLEQYAQDYEEAVLLLLEGSAWEEALRLVYKYDRVDIIETSVKPSILEAQKNYMDFLDSETATFIRHKNRLQVVRALRRQAPQVHVDHEVAHGPESDLFSETSSIMSGSEMSGRYSHSNSRISARSSKNRRKAERKKHSLKEGSPLEGLALLEALSEVVQSVEKLKDEVRAILKVLFLFEFEEQAKELQRAFESTLQLMERAVPEIWTPAGQQSSTTPVLGPSSTANSITASYQQQKTCVPALDAGVYMPPKMDPRSQWKLSLLE

The chains behind the UniProt entries cited, without tags or fusion partners.
UniProt Q08642: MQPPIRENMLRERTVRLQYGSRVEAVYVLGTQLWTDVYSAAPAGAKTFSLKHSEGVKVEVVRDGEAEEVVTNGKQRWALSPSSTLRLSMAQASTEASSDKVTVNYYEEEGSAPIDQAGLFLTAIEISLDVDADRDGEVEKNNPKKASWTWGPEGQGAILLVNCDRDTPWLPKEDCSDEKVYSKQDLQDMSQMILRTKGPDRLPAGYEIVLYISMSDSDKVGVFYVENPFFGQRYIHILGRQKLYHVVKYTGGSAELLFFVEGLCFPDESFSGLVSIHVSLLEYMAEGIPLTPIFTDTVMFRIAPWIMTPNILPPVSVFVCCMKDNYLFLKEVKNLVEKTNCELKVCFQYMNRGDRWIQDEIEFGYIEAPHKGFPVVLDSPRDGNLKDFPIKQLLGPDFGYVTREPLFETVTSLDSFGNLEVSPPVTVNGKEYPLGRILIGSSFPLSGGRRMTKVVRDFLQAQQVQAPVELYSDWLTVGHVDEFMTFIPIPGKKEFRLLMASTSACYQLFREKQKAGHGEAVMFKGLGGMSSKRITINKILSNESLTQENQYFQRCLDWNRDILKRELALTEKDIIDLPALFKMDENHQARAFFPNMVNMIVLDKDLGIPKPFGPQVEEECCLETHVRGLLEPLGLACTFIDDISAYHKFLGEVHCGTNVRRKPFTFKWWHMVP
UniProt P70168: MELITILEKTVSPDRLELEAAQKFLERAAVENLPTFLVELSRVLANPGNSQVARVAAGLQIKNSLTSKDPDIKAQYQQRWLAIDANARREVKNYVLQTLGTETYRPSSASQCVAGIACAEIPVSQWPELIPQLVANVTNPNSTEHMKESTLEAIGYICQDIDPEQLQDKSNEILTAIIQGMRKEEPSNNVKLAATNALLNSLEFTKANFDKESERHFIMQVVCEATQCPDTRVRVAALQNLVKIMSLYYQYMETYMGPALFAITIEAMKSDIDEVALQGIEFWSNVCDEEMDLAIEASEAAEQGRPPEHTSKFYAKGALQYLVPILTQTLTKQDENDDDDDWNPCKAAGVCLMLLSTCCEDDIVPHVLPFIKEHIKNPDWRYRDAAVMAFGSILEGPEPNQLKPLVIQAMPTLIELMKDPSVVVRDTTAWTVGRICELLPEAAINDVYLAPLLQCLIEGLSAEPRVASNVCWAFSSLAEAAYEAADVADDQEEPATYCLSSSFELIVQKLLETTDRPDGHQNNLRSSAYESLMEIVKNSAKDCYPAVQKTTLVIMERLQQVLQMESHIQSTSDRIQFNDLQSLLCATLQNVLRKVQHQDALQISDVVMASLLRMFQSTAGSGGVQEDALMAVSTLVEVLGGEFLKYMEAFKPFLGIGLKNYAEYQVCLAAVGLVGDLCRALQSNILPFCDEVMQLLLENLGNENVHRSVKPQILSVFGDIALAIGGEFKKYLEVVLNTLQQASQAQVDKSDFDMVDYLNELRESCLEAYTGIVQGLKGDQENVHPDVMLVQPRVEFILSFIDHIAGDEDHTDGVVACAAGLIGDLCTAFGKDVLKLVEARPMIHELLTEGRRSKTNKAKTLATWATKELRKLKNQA
UniProt P19096: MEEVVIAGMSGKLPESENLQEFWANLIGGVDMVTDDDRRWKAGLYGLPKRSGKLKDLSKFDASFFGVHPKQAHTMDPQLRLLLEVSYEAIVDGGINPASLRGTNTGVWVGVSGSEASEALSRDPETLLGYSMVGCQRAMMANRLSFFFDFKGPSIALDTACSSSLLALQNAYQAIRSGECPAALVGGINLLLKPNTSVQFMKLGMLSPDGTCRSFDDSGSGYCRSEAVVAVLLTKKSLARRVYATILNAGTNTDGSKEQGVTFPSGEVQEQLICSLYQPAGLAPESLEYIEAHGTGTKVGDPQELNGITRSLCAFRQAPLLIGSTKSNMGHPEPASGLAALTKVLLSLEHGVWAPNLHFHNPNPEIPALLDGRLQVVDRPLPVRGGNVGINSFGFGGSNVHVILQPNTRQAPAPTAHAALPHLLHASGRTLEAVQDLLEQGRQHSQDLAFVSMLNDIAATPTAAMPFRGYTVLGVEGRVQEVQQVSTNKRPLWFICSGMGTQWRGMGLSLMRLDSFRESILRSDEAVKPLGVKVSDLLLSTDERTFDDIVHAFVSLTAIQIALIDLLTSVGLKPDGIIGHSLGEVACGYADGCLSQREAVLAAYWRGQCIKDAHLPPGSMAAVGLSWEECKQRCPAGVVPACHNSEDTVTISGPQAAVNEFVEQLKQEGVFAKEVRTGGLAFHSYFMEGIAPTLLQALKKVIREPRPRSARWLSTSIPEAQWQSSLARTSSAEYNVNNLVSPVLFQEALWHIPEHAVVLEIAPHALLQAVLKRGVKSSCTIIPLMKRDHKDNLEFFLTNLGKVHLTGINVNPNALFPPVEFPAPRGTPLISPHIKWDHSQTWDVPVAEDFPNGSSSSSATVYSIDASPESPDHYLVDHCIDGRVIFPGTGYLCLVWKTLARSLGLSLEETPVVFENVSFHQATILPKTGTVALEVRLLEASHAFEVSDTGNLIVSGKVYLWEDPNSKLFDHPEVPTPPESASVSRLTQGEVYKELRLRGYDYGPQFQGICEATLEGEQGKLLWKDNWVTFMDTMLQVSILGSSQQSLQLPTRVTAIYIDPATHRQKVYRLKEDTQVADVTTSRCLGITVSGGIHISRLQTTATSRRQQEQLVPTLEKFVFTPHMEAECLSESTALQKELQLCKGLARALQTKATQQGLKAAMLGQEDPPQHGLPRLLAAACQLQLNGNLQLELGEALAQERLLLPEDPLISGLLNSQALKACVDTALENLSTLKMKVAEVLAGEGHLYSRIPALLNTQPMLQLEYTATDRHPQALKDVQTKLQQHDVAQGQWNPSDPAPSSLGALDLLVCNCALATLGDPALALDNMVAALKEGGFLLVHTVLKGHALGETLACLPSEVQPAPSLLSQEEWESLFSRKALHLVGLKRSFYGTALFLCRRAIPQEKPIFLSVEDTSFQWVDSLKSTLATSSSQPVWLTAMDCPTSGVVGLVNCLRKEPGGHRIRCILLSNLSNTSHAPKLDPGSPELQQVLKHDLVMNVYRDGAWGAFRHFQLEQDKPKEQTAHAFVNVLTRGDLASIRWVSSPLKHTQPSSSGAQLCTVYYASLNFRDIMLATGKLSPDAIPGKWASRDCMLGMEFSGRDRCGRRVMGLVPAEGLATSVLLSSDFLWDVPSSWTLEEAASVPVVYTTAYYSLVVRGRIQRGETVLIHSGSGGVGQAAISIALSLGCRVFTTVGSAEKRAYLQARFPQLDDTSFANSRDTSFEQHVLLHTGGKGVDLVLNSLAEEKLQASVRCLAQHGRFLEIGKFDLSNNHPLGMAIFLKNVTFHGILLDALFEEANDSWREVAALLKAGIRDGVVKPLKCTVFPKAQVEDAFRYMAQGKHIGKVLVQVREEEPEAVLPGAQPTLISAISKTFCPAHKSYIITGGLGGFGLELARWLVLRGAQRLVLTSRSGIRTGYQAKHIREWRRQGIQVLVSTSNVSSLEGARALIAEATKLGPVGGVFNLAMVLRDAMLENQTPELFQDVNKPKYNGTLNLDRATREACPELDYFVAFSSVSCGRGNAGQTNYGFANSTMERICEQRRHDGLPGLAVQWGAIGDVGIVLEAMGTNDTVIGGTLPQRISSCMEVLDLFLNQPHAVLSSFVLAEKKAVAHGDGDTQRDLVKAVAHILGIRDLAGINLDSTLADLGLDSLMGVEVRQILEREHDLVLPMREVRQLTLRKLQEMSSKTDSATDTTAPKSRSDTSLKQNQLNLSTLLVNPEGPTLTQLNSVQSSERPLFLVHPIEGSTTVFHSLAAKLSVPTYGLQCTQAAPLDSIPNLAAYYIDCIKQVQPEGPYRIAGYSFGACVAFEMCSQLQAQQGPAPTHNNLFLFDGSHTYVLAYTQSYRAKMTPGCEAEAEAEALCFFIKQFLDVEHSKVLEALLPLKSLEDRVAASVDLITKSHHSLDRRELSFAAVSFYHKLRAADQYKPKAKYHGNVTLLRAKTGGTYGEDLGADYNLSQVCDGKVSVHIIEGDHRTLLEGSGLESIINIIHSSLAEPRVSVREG

These are yes or no findings as the source states them, for the method shown. In cells and extracts the contact can be indirect. These calls come from enrichment with a bait or labelling near it, and not all partners need be listed.

This assay has as its target biotin-tagged PADI2 (peptidylarginine deiminase 2) (UniProt Q08642). The experiment in a line: affinity purification with mass spectrometry.
For KPNB1 (from UniProt P70168 1-876), the binding entry is listed as “binds”. On to FASN (from UniProt P19096 1-2504), for which the binding entry was “binds”. The same measure for B1: “binds”.

For B2, the binding result is “binds”.
